Reference: PubChem BioAssay AID1224830 (NIAID, 2016)
Screen: 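Genes whose knock-down alters the TNF-alpha reporter response to LPS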 (primary screen). Cell system: human THP-1 monocytic leukaemia cells, TNF dual-luciferase reporter clone, PMA-differentiated to macrophage-like cells. Reagent: siRNA pool against human genes, 50 nM. Time to read-out: LPS for 4 h, given about 3 days after siRNA transfection. Treatment: bacterial LPS (TLR4 ligand), 10 ng/ml. Read-out: 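Ratio of firefly to renilla light, scaled to the plate median and expressed as a robust z-score per replicate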. Direction: TNF reporter robust z-score: higher = stronger TNF reporter response to LPS. Hit rule: 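a well is active when its z-score exceeds 2.8 or falls below -1.5; control wells carry no call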.
Here is a random part of about 18,000 reagents tested. Of all reagents, about 2,900 (16%) got an active call. 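Calls are made per well; low scores hint the gene aids the LPS response, high scores that it dampens it.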 Unmarked entries are inactive. Repeated entries: four replicate wells of each siRNA pool. Reagent sequences are not shown.

GABRA2 → TNF reporter robust z-score: -0.58
GABRA2 → TNF reporter robust z-score: -0.13
GABRA2 → TNF reporter robust z-score: -0.92
GABRA2 → TNF reporter robust z-score: -1
CSNK2A1 → TNF reporter robust z-score: -1.48
CSNK2A1 → TNF reporter robust z-score: 0.75
CSNK2A1 → TNF reporter robust z-score: -0.97
CSNK2A1 → TNF reporter robust z-score: 0.99
COLGALT2 → TNF reporter robust z-score: 0.14
COLGALT2 → TNF reporter robust z-score: -0.12
COLGALT2 → TNF reporter robust z-score: 0.09
COLGALT2 → TNF reporter robust z-score: 0.73
HHIPL2 → TNF reporter robust z-score: 4.26 (active)
HHIPL2 → TNF reporter robust z-score: 0
HHIPL2 → TNF reporter robust z-score: 0.04
HHIPL2 → TNF reporter robust z-score: 1.02
NFS1 → TNF reporter robust z-score: 1.07
NFS1 → TNF reporter robust z-score: 0
NFS1 → TNF reporter robust z-score: -0.96
NFS1 → TNF reporter robust z-score: 0.44
TMED4 → TNF reporter robust z-score: -1.36
TMED4 → TNF reporter robust z-score: -1.78 (active)
TMED4 → TNF reporter robust z-score: -1.68 (active)
TMED4 → TNF reporter robust z-score: -1.79 (active)
ARV1 → TNF reporter robust z-score: -1.26
ARV1 → TNF reporter robust z-score: -1.29
ARV1 → TNF reporter robust z-score: -1.22
ARV1 → TNF reporter robust z-score: -1.45
RHOC → TNF reporter robust z-score: -0.18
RHOC → TNF reporter robust z-score: -0.03
RHOC → TNF reporter robust z-score: -0.02
RHOC → TNF reporter robust z-score: 0.91
IGF2BP3 → TNF reporter robust z-score: 0.34
IGF2BP3 → TNF reporter robust z-score: -0.13
IGF2BP3 → TNF reporter robust z-score: 0.45
IGF2BP3 → TNF reporter robust z-score: 1.74
QSOX1 → TNF reporter robust z-score: -1.37
QSOX1 → TNF reporter robust z-score: -0.33
QSOX1 → TNF reporter robust z-score: -0.98
QSOX1 → TNF reporter robust z-score: -0.51
IL23R → TNF reporter robust z-score: -1.05
IL23R → TNF reporter robust z-score: -0.49
IL23R → TNF reporter robust z-score: -0.47
IL23R → TNF reporter robust z-score: -0.33
EDN2 → TNF reporter robust z-score: -0.39
EDN2 → TNF reporter robust z-score: -0.52
EDN2 → TNF reporter robust z-score: -0.84
EDN2 → TNF reporter robust z-score: -0.69

Quoted from the entries so far for reference:
NFS1 → TNF reporter robust z-score: 0.44
TMED4 → TNF reporter robust z-score: -1.36
TMED4 → TNF reporter robust z-score: -1.78 (active)
TMED4 → TNF reporter robust z-score: -1.68 (active)
TMED4 → TNF reporter robust z-score: -1.79 (active)
ARV1 → TNF reporter robust z-score: -1.26
ARV1 → TNF reporter robust z-score: -1.29
ARV1 → TNF reporter robust z-score: -1.22
